From PMC11480233, “Structural insights into the Caprin-2 HR1 domain in canonical Wnt signaling” (The Journal of Biological Chemistry, 2024)
Results are given in words; binding and its absence hold for the method and conditions named. Some entries that bind do so weakly or less than the wild type.

Target: HR1 domain of human Caprin-2 (aa S102-K351) (human) (UniProt Q6IMN6)
Assay: crystal structure; hCap2_HR1 crystals from 12 to 15% PEG3350, 20 mM lithium chloride; space group C2; two copies in the asymmetric unit; phased by Se-MET SAD; both purified

B1: HR1 domain of human Caprin-2 (aa S102-K351) (domain or fragment, UniProt Q6IMN6 102-351, looked up)
chain: SPLQSTLSSAASPSQAYETYIENGLICLKHKIRNIEKKKLKLEDYKDRLKSGEHLNPDQLEAVEKYEEVLHNLEFAKELQKTFSGLSLDLLKAQKKAQRREHMLKLEAEKKKLRTILQVQYVLQNLTQEHVQKDFKGGLNGAVYLPSKELDYLIKFSKLTCPERNESLSVEDQMEQSSLYFWDLLEGSEKAVVGTTYKHLKDLLSKLLNSGYFESIPVPKNAKEKEVPLEEEMLIQSEKKTQLSKTESVK
notes: Caprin-2, human, HR1 domain construct, residues S102-K351, cloned from full-length human Caprin-2; Modified pET-28a vector with a TEV site in place of the thrombin site; A SeMet triple mutant I217M/L251M/L301M of the same limits was used for phasing; also called hCap2_HR1; Cap2_HR1
binding: binds
